Experimental data published in the supplement of paper PMC3334620.
The full ranking holds about 33,000 sequences; the median of “E-score (-0.5 to 0.5)” is about -0.0059, and the highest 2% start at about 0.26. This is one part of the list.

molecular target: T1, Cin5 (UniProt P40917); experiment: PBM E-score (8-mer binding enrichment) (E-score (-0.5 to 0.5)); higher = stronger / more preferred TF binding; conditions: protein concentration: 100 nM; construct: GST-full length
T1 sequence: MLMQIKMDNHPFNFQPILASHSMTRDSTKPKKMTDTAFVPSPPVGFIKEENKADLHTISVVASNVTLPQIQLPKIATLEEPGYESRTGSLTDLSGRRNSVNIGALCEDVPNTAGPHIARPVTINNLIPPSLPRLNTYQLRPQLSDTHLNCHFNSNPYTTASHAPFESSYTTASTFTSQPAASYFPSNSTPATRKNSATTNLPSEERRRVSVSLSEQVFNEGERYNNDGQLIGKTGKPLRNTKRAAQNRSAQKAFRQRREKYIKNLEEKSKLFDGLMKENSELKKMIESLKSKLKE
In short: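 E-scores (a modified Wilcoxon-Mann-Whitney statistic) were assigned by the Universal PBM Analysis Suite to every ungapped eight-base word pooled with its reverse complement. The input came from universal all-10-mer Agilent arrays made double-stranded by primer extension and probed with GST-tagged yeast transcription factors at about 100-200 nM. Fluorescent anti-GST detected bound protein, and masliner normalised the scans.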

Sequence	PBM E-score
AGTATTTG	0.0515
AGAGCAAC	-0.203
AACGTTAT	0.161
ATTGCGGG	0.0938
ACGTAACT	0.0957
CCGGATCG	0.0425
ACATACCA	-0.112
CTCATTCC	0.147
GGTCGGGA	-0.0297
CGTTCTGA	-0.168
GCAGTTCA	-0.0631
CAGGTTTC	0.193
AGAACTCG	-0.0129
CCGGGTTA	-0.0642
AGCGCTAT	0.206
AAGACCGA	0.0206
GTGTGCCA	-0.132
AAGCGCTC	-0.0985
CTGTGAGA	-0.225
ATTCCTAC	0.098
AAGTCAAT	0.154
ATTATCCG	0.289
AGTCACGA	-0.141
CGTTACTA	0.0867
CTCTCACA	0.0393

Sequence	PBM E-score
CCGGAGGC	-0.25
GAGACTTA	-0.148
AGCCATAA	0.00286
AGACATCC	-0.0942
AAGCGTAA	0.0919
CTCCATGA	0.0384
GACATATA	0.137
TCAAACGA	-0.0242
CATTTTAC	0.263
ATTCATTC	0.299
AGGCCCCT	-0.265
CACGGACA	-0.023
TACTGCGA	0.011
CCACCCAC	0.066
AGTGAGGC	-0.0645
GCCTGCTA	-0.181
AGCACGAA	0.174
CTTATGCA	0.106
GTAAGTAC	0.138
AGGTTCTC	-0.153
CTTCGGCA	-0.123
AGATTACC	0.14
ACCAAATC	0.0874
CCTCCCAC	-0.214
TAATGGTA	-0.00375

Taken from above.
CTTATGCA – PBM E-score: 0.106
GCAGTTCA – PBM E-score: -0.0631
ACCAAATC – PBM E-score: 0.0874
AGCACGAA – PBM E-score: 0.174
AGCGCTAT – PBM E-score: 0.206
AAGCGTAA – PBM E-score: 0.0919

Later entries:

Sequence	PBM E-score
TAATTGCA	0.181
ATACCGCC	0.0264
GTCTTGTA	-0.103
ATCTGGCC	-0.108
GTCTAGAC	-0.231
ACGAGTTA	0.163
CCCCAAGA	-0.0535
GCAGCTTA	0.073
CGCTATTC	0.132
AATGCCTC	0.00834
CAGCCGTC	-0.0317
ATTGTATG	0.18
TAGTAACA	0.145
AAATTGTA	0.169
CACAGCCG	-0.0347
CTCAGAAC	0.00723
AGTCCTTA	-0.0362
CCGTTAAA	-0.00661
AACATCGA	0.155
ATCACAAA	0.202
GCCAGGGA	-0.194
CGGTTCAA	-0.102
GGGGTAAC	-0.123
AGCGTGGA	-0.0913
ATTGCTAG	-0.02

Sequence	PBM E-score
ACAGGCTC	-0.212
GGAGCTCA	-0.23
CATCCGAG	0.00132
GGCACACA	-0.0762
CGTGTTAA	0.0187
GCTTTCAA	0.0189
CGTGCCAC	-0.275
CGACAGAA	0.224
GAGTCTAA	-0.138
ACAAAGGG	-0.157
CGGCTACG	-0.109
AGAGAACG	0.0141
ATGTTTAA	-0.0454
AGAAGTCA	0.0776
CTCCTGCA	-0.194
AGGCGCGC	0.0598
ATACTGTC	0.208
AAGGGTTA	-0.137
ATTTTGCG	0.207
CCGTCGAG	0.0466
GCGCCCCC	-0.264
AAATAATT	0.301
AATGAACC	0.0103
ACCACCGT	-0.0691
AATATTCC	0.289

Sequence	PBM E-score
ACGGGGGG	-0.419
AGCCTCAC	-0.0856
CCGAATGA	-0.0132
CGGCGCAC	-0.0276
AGTAAAAA	0.169
GCTCTGTA	-0.00185
AGTAGGGA	-0.0905
CTACGCTC	-0.1
ATCTCCTC	-0.0974
CGTTTGAA	0.0201
CGTACGAG	-0.102
GCGTGAAC	-0.122
AAGGTGGC	-0.0601
CTATGAAG	-0.0355
ATGCGCAT	0.332
AATAGTAC	0.05
CGATGAGC	-0.0198
ATCGGGCG	-0.0959
CCGCAATA	0.173
CAACAAAG	0.15
GACGCCGC	-0.0694
ACCCGGCA	-0.174
ACAGTACG	0.0139
GATACGAA	0.133
ATACGTTC	-0.0798

Sequence	PBM E-score
CAAATCGA	0.112
GGTGCTTA	0.0985
ACTCTATC	0.0619
GAGGACTC	-0.303
CCGTTTGC	-0.0266
AACTCCTA	-0.00624
AGATATTG	0.129
TATAAGCA	0.256
GTACCTGA	-0.0233
AAGCACTG	0.0871
CAAGGCAC	-0.105
GTAGTTCA	-0.0154
CCCCGGGC	-0.282
CTGTGGAC	-0.0624
ATGGAGCC	-0.232
TAATGTGA	0.292
AGTGGGGG	-0.463
AGAAGTTG	-0.193
AATATGCT	0.145
ACGAATCA	0.132
CGGCCATC	-0.3
CAATCCTC	-0.129
TGACGCAA	0.0669
AACTGCAT	0.22
CACCGGCG	-0.0585

Sequence	PBM E-score
AATACTGT	0.258
AACCTGAT	0.0724
CCAGCTTA	0.182
AATATAAG	0.276
GGCAGAGA	-0.0513
GGATCGAC	-0.0684
ACCGTACG	-0.192
ACAACCCT	-0.0604
ATTTGAAA	0.172
ACATCAAA	0.178
CCAAAGGA	-0.0559
AGAGATGC	-0.0523
ATGTCCAG	-0.0453
ATCCGGAT	0.259
ATCCGGTA	0.096
AGAATTTC	-0.117
ATGTACAG	-0.149
CAATTCGA	-0.159
GCTTATCC	0.236
CGACGTAG	-0.242
CCAGGTAG	-0.131
CAGTCCAC	-0.147
